Measurements published in PMC3652797.
No constants are given. Whether binding was seen depends on the method and setting. In cells and extracts the contact can be indirect. Some results given as binding are weak or reduced against the parent protein; the word gives no strength. For some of these results: Sequences can lack the tags named with a protein. Values belong to the molecule of their own block, whether it stands above or below them.

Chains of the proteins cited; added tags and fusions are not shown. Lines headed by an entry give the natural chain unless they say otherwise; changes in a name come on top.
UniProt Q03391: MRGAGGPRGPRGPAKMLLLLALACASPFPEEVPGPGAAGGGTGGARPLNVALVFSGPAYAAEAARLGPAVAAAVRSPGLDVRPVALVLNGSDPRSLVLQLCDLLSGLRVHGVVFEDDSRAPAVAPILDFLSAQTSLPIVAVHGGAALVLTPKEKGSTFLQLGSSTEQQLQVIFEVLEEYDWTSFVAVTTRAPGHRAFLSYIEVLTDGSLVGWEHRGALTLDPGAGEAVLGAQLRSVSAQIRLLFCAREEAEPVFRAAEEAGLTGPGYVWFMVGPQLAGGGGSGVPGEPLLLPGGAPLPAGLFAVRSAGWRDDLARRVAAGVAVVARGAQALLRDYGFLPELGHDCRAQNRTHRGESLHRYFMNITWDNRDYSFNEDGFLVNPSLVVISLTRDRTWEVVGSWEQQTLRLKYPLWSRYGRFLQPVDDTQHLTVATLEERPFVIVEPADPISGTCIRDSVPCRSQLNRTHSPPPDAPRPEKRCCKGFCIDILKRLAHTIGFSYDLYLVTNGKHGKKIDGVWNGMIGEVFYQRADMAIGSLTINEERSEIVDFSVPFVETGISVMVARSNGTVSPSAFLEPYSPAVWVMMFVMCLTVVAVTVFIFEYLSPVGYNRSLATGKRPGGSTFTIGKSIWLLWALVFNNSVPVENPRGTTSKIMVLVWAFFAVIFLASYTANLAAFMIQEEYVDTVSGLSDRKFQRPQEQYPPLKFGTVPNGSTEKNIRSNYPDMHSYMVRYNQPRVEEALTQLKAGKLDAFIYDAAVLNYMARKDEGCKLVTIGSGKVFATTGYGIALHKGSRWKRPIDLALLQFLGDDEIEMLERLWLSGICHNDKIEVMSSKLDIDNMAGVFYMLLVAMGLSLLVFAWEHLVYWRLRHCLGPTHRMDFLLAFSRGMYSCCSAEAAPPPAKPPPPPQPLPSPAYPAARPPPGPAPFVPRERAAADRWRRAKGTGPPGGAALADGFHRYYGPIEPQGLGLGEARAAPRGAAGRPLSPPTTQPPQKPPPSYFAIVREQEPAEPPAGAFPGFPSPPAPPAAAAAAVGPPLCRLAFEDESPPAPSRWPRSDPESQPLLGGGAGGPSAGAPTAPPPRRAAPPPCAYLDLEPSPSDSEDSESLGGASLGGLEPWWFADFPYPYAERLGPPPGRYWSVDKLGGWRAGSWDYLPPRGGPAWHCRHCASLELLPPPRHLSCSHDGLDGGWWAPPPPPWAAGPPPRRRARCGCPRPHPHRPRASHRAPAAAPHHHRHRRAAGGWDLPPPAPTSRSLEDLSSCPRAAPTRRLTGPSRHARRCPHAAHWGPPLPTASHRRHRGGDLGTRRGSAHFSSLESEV

Experiments:
[1] = molecular target: NR2D subunit of the NMDA receptor, endogenous in mouse embryonic brain (mouse (endogenous in embryonic day 18 brain)) (UniProt Q03391); assay: co-IP; endogenous proteins, mouse embryonic day 18 brain homogenate (300 mM NaCl, 5 mM Tris-Cl pH 7.5, 0.5% Triton X-100); anti-NR2D or anti-Dock3 antibody, protein G Sepharose, 4°C; NR2D-/- brain as control
[2] = molecular target: T1, Myc-tagged Dock3 interaction domain (amino acids 796-1154) (mouse) (UniProt Q8CIQ7); assay: co-IP; HEK293T cells co-transfected with Myc-Dock3 SID and EGFP-NR2D CT; lysates (1% NP-40, 0.5% Na-deoxycholate, 150 mM NaCl) precipitated with anti-GFP or anti-Myc magnetic beads; blots with anti-Myc or anti-GFP
T1 sequence: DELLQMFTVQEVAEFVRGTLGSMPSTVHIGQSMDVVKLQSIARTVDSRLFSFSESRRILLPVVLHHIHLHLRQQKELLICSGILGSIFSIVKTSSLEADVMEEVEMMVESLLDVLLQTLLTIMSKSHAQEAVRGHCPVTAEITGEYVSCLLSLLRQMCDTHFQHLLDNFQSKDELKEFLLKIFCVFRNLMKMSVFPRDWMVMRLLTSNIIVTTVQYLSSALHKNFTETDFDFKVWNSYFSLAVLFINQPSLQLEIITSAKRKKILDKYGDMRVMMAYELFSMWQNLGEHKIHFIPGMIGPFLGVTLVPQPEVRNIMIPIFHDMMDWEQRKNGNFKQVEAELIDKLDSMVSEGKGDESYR

[3] = molecular target: Dedicator of cytokinesis 3 (Dock3), endogenous in mouse embryonic brain (mouse (endogenous in embryonic day 18 brain)) (UniProt Q8CIQ7); assay: co-IP; endogenous proteins, mouse embryonic day 18 brain homogenate (300 mM NaCl, 5 mM Tris-Cl pH 7.5, 0.5% Triton X-100); anti-NR2D or anti-Dock3 antibody, protein G Sepharose, 4°C; NR2D-/- brain as control
[4] = molecular target: EGFP-tagged NR2D C-terminus (amino acids 895-1323) (mouse) (UniProt Q03391); assay: co-IP; HEK293T cells co-transfected with Myc-Dock3 SID and EGFP-NR2D CT; lysates (1% NP-40, 0.5% Na-deoxycholate, 150 mM NaCl) precipitated with anti-GFP or anti-Myc magnetic beads; blots with anti-Myc or anti-GFP

Molecule: Dedicator of cytokinesis 3 (Dock3), endogenous in mouse embryonic brain (from UniProt Q8CIQ7 1-2027)
binding [1]: binds

B1: Myc-tagged Dock3 interaction domain (amino acids 796-1154) (domain or fragment, UniProt Q8CIQ7 796-1154)
chain: DELLQMFTVQEVAEFVRGTLGSMPSTVHIGQSMDVVKLQSIARTVDSRLFSFSESRRILLPVVLHHIHLHLRQQKELLICSGILGSIFSIVKTSSLEADVMEEVEMMVESLLDVLLQTLLTIMSKSHAQEAVRGHCPVTAEITGEYVSCLLSLLRQMCDTHFQHLLDNFQSKDELKEFLLKIFCVFRNLMKMSVFPRDWMVMRLLTSNIIVTTVQYLSSALHKNFTETDFDFKVWNSYFSLAVLFINQPSLQLEIITSAKRKKILDKYGDMRVMMAYELFSMWQNLGEHKIHFIPGMIGPFLGVTLVPQPEVRNIMIPIFHDMMDWEQRKNGNFKQVEAELIDKLDSMVSEGKGDESYR
binding [4]: binds

Other lines, results leading:

binding [2]: binds
Molecule: EGFP-tagged NR2D C-terminus (amino acids 895-1323) (from UniProt Q03391 895-1323) (domain or fragment)

binding [3]: binds
Molecule: NR2D subunit of the NMDA receptor, endogenous in mouse embryonic brain (from UniProt Q03391 28-1323)
